Where a name gives a salt, the structure may show the parent alone. The list shows a part of the results. Repeats are few or missing, and single values can be far off.
Each molecule was assayed on Caenorhabditis elegans ST65 (ncIs13[ajm-1::GFP]) (assay: 'Larvae/adult' ratio (MetaXpress pharynx counts; minimum value 1, so it appears to include adults; growth inhibition read-out)). Conditions: 10 µM; exposure time: 4-5 days from L1 at 20°C.

Compound	'Larvae/adult' ratio
CN(C)C(=N)NC(=N)N [Metformin HCl]	1.44
NC(=S)N/N=C/c1ncccc1N [Triapine]	1.25
Cc1ccc(F)c(NC(=O)Nc2ccc(-c3cccc4[nH]nc(N)c34)cc2)c1 [Linifanib (ABT-869)]	1.9
CN(C(=O)c1ccc(F)cc1C(F)(F)F)C1CCN(c2nnc(-c3ccnn3C)c3ccccc23)CC1	3.2
N#CC[C@H](C1CCCC1)n1cc(-c2ncnc3[nH]ccc23)cn1	1.69
C[C@@H](Oc1cc(-c2cnn(C3CCNCC3)c2)cnc1N)c1c(Cl)ccc(F)c1Cl	1.66
COc1cc(Nc2ncc3c(n2)-c2ccc(Cl)cc2C(c2c(F)cccc2OC)=NC3)ccc1C(=O)O [Alisertib (MLN8237)]	1.33
C=CC(=O)Nc1cccc(Nc2nc(Nc3ccc(OCCOC)cc3)ncc2F)c1 [Spebrutinib (CC-292, AVL-292)]	1.88
CS(=O)(=O)c1ccc(-c2cnc(N)c(C(=O)Nc3ccccc3)n2)cc1	2.37
CCS(=O)(=O)N1CC(CC#N)(n2cc(-c3ncnc4[nH]ccc34)cn2)C1	2.25
NC(=O)/C(=C/n1cnc(-c2cc(C(F)(F)F)cc(C(F)(F)F)c2)n1)c1cncnc1 [Eltanexor (KPT-8602)]	6.5
COc1cc([C@@H]2c3cc4c(cc3[C@@H](O[C@@H]3O[C@@H]5CO[C@@H](c6cccs6)O[C@H]5[C@H](O)[C@H]3O)[C@H]3COC(=O)[C@H]23)OCO4)cc(OC)c1O [Teniposide]	1.92
CCCN(CCC)C(=O)C1=Cc2ccc(-c3ccc(C(=O)N4CCCC4)cc3)cc2N=C(N)C1 [Motolimod (VTX-2337)]	1.84
Cc1[nH]c2ccccc2c1CCNCc1ccc(/C=C/C(=O)NO)cc1 [Panobinostat (LBH589)]	2.02
CNC(=O)c1cc(COc2nnc(Nc3ccc(Cl)cc3)c3ccoc23)ccn1 [Telatinib]	2.25
Cc1cccc(-c2[nH]c(CNc3ccccc3F)nc2-c2ccc3ncnn3c2)n1 [Vactosertib ?(TEW-7197)]	1.75
Cc1nc(Nc2n[nH]c3c2CN(C(=O)N[C@H](CN(C)C)c2ccccc2)C3(C)C)c2sccc2n1	2
Nc1ccccc1NC(=O)c1ccc(CNC(=O)OCc2cccnc2)cc1 [Entinostat (MS-275)]	1.72
COc1cc2ncnc(Nc3cccc(Cl)c3F)c2cc1OC(=O)N1CCN(C)C[C@H]1C	1.4

In another format: three of the compounds above

| Compound | 'Larvae/adult' ratio |
| --- | --- |
| CN(C)C(=N)NC(=N)N [Metformin HCl] | 1.44 |
| NC(=S)N/N=C/c1ncccc1N [Triapine] | 1.25 |
| Cc1ccc(F)c(NC(=O)Nc2ccc(-c3cccc4[nH]nc(N)c34)cc2)c1 [Linifanib (ABT-869)] | 1.9 |

Remaining list, next part.

Compound	'Larvae/adult' ratio
CCCCCCCCCCCCCCCCCCOP(=O)([O-])OC1CC[N+](C)(C)CC1 [Perifosine (KRX-0401)]	1.79
COC(=O)c1ccc2c(c1)NC(=O)/C2=C(\Nc1ccc(N(C)C(=O)CN2CCN(C)CC2)cc1)c1ccccc1 [Nintedanib (BIBF 1120)]	2.11
O=C1c2c(O)ccc(O)c2C(=O)c2c(NCCNCCO)ccc(NCCNCCO)c21 [Mitoxantrone 2HCl]	1.73
Nc1ncn([C@H]2C[C@H](O)[C@@H](CO)O2)c(=O)n1 [Decitabine]	2.06
O=C(c1ccc(OCCN2CCCCC2)cc1)c1c(-c2ccc(O)cc2)sc2cc(O)ccc12 [Raloxifene HCl]	4.06
O=C(NOCCO)c1ccc2cncn2c1Nc1ccc(I)cc1F	1.79
C[C@@H](Oc1ccc2[nH]nc(/C=C/c3cnn(CCO)c3)c2c1)c1c(Cl)cncc1Cl	2.15
CNC(=O)c1ccc2cc([C@@]3(O)CCn4cncc43)ccc2c1 [TAK-700 (Orteronel)]	1.96
COc1cc2c(cc1OCCCN1CCCC1)N=C(N)C21CCC1	1.62
CO[C@H]1C[C@@H]2CC[C@@H](C)[C@@](O)(O2)C(=O)C(=O)N2CCCC[C@H]2C(=O)O[C@H]([C@H](C)C[C@@H]2CC[C@@H](OP(C)(C)=O)[C@H](OC)C2)CC(=O)[C@H](C)/C=C(\C)[C@@H](O)[C@@H](OC)C(=O)[C@H](C)C[C@H](C)/C=C/C=C/C=C/1C [Ridaforolimus (Deforolimus, MK-8669)]	2.83
Cc1ccc(NC(=O)c2ccc(CN3CC[C@H](N(C)C)C3)c(C(F)(F)F)c2)cc1Nc1nccc(-c2cncnc2)n1 [Bafetinib (INNO-406)]	1.58
C=CCc1cccc(/C=N/NC(=O)CN2CCN(Cc3ccccc3)CC2)c1O	1.68
C1=N/C2=N/c3ccc(OCCN4CCCC4)c(c3)COC/C=C/COCc3cccc(c3)C(=C1)N2 [Pacritinib (SB1518)]	4.12
CN1CC[C@H](c2c(O)cc(O)c3c(=O)cc(-c4ccccc4Cl)oc23)[C@H](O)C1 [Flavopiridol (Alvocidib)]	2.87
Cc1ccc(NC(=O)c2ccc(CN3CCN(C)CC3)cc2)cc1Nc1nc(-c2cccnc2)cs1 [Masitinib (AB1010)]	1.52
Cc1nc(Nc2ncc(C(=O)Nc3c(C)cccc3Cl)s2)cc(N2CCN(CCO)CC2)n1 [Dasatinib]	1.62
CC(C)Cn1cnc2c(N)nc3ccccc3c21 [Imiquimod]	2.03
Nc1ccccc1NC(=O)c1ccc(CNc2nccc(-c3cccnc3)n2)cc1 [Mocetinostat (MGCD0103)]	1.59
C[C@@H](Oc1cc(-n2cnc3ccc(CN4CCN(C)CC4)cc32)sc1C(N)=O)c1ccccc1C(F)(F)F	1.83

Reference: the supplement of paper PMC11409438
